Earlier results as cited in patent publication US20100056488A1, “CORTICOSTEROID CONJUGATES AND USES THEREOF” (The McLean Hospital Corporation, priority 2002, published 2010).

Test system: cortisol production or ACTH
Details: suppression of cortisol production or ACTH

CNS activity: CNS active
Compound: C[C@@H]1C[C@H]2[C@@H]3CCC4=CC(=O)C=C[C@]4(C)[C@@]3(F)[C@@H](O)C[C@]2(C)[C@@]1(O)C(=O)COP(=O)(O)O [dexamethasone sodium phosphate]
